Source: PubChem BioAssay AID1457 (National Center for Advancing Translational Sciences (NCATS), 2008)
Values joined by “and” are separate entries in the source; they are usually repeats but may differ in a detail not shown here. Equal values may be shown once. This list holds what a sample rich in hits left over. Active and inactive are the calls of the source. The call rests on the fitted dose curve; in most records, active means well fitted inhibition curve with a large enough effect; inconclusive means small, poorly fitted or top-dose-only effect; inactive means no such curve, though single readings can be large or run the other way.

Test: qHTS Assay for Identifying the Cell-Membrane Permeable IMPase Inhibitors: Potentiation with Lithium;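 further: IP1 builds up when IMPase is blocked and the TR-FRET signal falls; plate controls were basal vehicle for no effect and high inhibitor control for full effect; nearly all actives have a fitted effect of over 50% in size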
Conditions: CHO-M1 cells, IP1 TR-FRET (IP-One), carbachol + lithium; at 59.4 µM (top of the series)
From the text: NIH Chemical Genomics Center [NCGC]
NIH Molecular Libraries Probe Production centers Network [MLPCN]
Assay Submitter (PI): Wei Zheng
Lithium has been widely used for the treatment of bipolar disorder. But lithium has a narrow therapeutic index and it can cause side effects such as thirst, weight gain, tremor, polyuria and memory problems. Although the mechanism for lithium action in treatment of bipolar disorder is still not fully understood, inhibition of inositol monophosphatase (IMPase) and the subsequent depletion of the inositol pool in living cells have been implicated as the primary therapeutic benefit of lithium therapy. […]
To identify new cell-permeable IMPase inhibitors, we developed a cell-based IMPase assay in which the cytosolic IP1 is measured by a time-resolved fluorescence resonance energy transfer (TR-FRET) assay. […]
A Chinese hamster ovary (CHO) cell line stably expressing the M1 receptor (CHO-M1) was obtained from ATCC and maintained in F-12 Kaighn's media (Invitrogen, Carlsbad, CA) supplemented with 10 % FBS, 100 units/ml penicillin, 100 ug/ml streptomycin and 250 ug/ml geneticin at 37C, 5% CO2 in a humidified atmosphere. […] AC50 values were determined from concentration-response data modeled with the standard Hill equation. […]
(7) Detect the assay plate (Ex = 320, Em1 =665 and Em2 620) in a ViewLux plate reader.

| Compound | activity, negative = IMPase inhibition |
| --- | --- |
| CN1C2CCC1CC(OC(=O)C(O)c1ccccc1)C2 (configuration not stated) | inactive: 34.3% and inactive: 39.4% |
| CN1[C@@H]2CC[C@H]1CC(OC(=O)[C@@H](O)c1ccccc1)C2 (some centres not stated) | inactive: 10.8% and inactive: 32.6% |
